Data on ten compounds can be found in PubChem BioAssay AID330 (DTP/NCI, 2004).

The test system of this assay is P388 leukemia ip, CD2F1 mice, survival T/C. Description: NCI In Vivo Anticancer Drug Screen. Data for tumor model P388 Leukemia (intraperitoneal) in CD2F1 (CDF1) mice. The note with it: T/C endpoint: median survival time, higher T/C = longer survival.
Where [1] appears, read: dose: 200.0 mg/kg/injection, schedule: Q01DX005 (ip), vehicle: saline with Tween-80.
Where [2] appears, read: dose: 240.0 mg/kg/injection, schedule: Q01DX005 (ip), vehicle: saline with Tween-80.

The list does not hold the whole screen: it is rich in T/C values a quarter to a half above the control, in often repeated tests (any T/C) and in doses without a T/C. Further doses and runs are listed elsewhere. T/C: endpoint of the treated group in % of that of the vehicle group. Some entries give survivors of the animals treated and no T/C: the source holds a T/C of zero for them, seemingly a mark for toxic or unscored doses. Some doses without a T/C left all or most animals alive at the check, yet need not have been tolerated: survival well below the control is almost never listed, so the zero probably covers shortened survival too. Counts of survivors are from the toxicity check (mostly the fifth day) where no day follows; animals may have died later. Schedule codes are those of the source, read here as Q, the interval in days (D) or hours (H), X, the number of doses. Some doses were run more than once; their values stand side by side, smallest first. For survival time, this PubChem deposit counts one and a half times the control or more as active, and values a quarter to a half above the control carry no call in these data; other NCI protocols may use other cut-offs. Some T/C values carry the count of animals alive at the toxicity check (mostly the fifth day); where none is given, no animal had died by that day.

In the case of `NCCNC(c1ccccc1)C(O)c1ccccc1` (stereo not given), under “dose: 200.0 mg/kg/injection, schedule: Q04DX002 (ip), vehicle: Klucel (hydroxypropylcellulose) (HPC)”, the survivor count is 4 of 6.
For the compound `CN(CCc1ccccn1)c1ccc2c(c1)C(=O)c1ccccc1-2`, under setting [1], the survivor count is listed as 0 of 5.
On to `CC1=CC(=C(c2ccc(N)cc2)c2ccc(N)cc2)C=CC1=N`, for which the T/C reads like this: (dose: 3.12 mg/kg/injection, schedule: Q01DX005 (ip), vehicle: water) 129 % of control; (dose: 6.25 mg/kg/injection, schedule: Q01DX005 (ip), vehicle: saline) 131 % of control; (dose: 6.25 mg/kg/injection, schedule: Q01DX005 (ip), vehicle: water) 125 % of control. Also, the survivor count is given as 6 of 6 (dose: 12.5 mg/kg/injection, schedule: Q01DX005 (ip), vehicle: saline); 0 of 5 (dose: 50.0 mg/kg/injection, schedule: Q01DX005 (ip), vehicle: saline with Tween-80); 0 of 5 (dose: 100.0 mg/kg/injection, schedule: Q01DX005 (ip), vehicle: saline with Tween-80); 0 of 5 under setting [1].
Consider `N=C1C=CC2C(=Nc3ccccc3[N+]2=O)N1CCO` (stereo not given), for which, for the setting “dose: 60.0 mg/kg/injection, schedule: Q01DX005 (ip), vehicle: saline with Tween-80”, the T/C was 125 % of control [5 of 6 alive]. Also, under setting [2], the survivor count was 0 of 6 and 1 of 6.
As for `COc1ccc2c(c1)-c1nn(CCCN(C)C)c3ccc([N+](=O)[O-])c(c13)N2`, the survivor count is, setting by setting: (dose: 25.0 mg/kg/injection, schedule: Q01DX005 (ip), vehicle: water) 6 of 6; (dose: 50.0 mg/kg/injection, schedule: Q01DX005 (ip), vehicle: water) 6 of 6; (dose: 100.0 mg/kg/injection, schedule: Q01DX005 (ip), vehicle: water) 6 of 6.
Take `COc1cc(C2=[N+](C)CCc3cc4c(cc32)OCO4)cc(OC)c1OC`: the survivor count (dose: 200.0 mg/kg/injection, schedule: Q01DX005 (ip), vehicle: Klucel (hydroxypropylcellulose) (HPC)) is listed as 0 of 6.
Consider `Cc1cc2c(cc1C)NC1=C(N2)OC(c2ccc3c(c2)OCO3)C1=O` (stereo not given), for which, under “dose: 240.0 mg/kg/injection, schedule: Q01DX005 (ip), vehicle: Klucel (hydroxypropylcellulose) (HPC)”, the survivor count is reported as 2 of 6.
As for `CC1(C)CN(Cc2ccccc2)C1(C)C#N` (stereo not given), the survivor count under setting [2] is listed as 1 of 6.
Turning to `COC(=O)C(N)CCCCNc1ccc2c(cc1=O)C(NC(C)=O)CCc1cc(OC)c(OC)c(OC)c1-2` (stereo not given), the T/C reads like this: (dose: 50.0 mg/kg/injection, schedule: Q01DX009 (ip), vehicle: saline with Tween-80) 128 % of control; (dose: 100.0 mg/kg/injection, schedule: Q01DX009 (ip), vehicle: saline with Tween-80) 130 % of control; (dose: 120.0 mg/kg/injection, schedule: Q01DX009 (ip), vehicle: saline) 130 % of control; (dose: 180.0 mg/kg/injection, schedule: Q01DX009 (ip), vehicle: saline) 133 % of control; (dose: 200.0 mg/kg/injection, schedule: Q01DX009 (ip), vehicle: saline with Tween-80) 147 % of control [5 of 6 alive]. For the same compound, the survivor count (dose: 400.0 mg/kg/injection, schedule: Q01DX009 (ip), vehicle: saline with Tween-80) is reported as 5 of 6.
`C=C1C(=O)OC2/C=C(\C)CC/C=C(/CO)C(OC(=O)C(C)(C)O)C(OC(=O)C(C)C)C12` (stereo not given): the survivor count (dose: 10.0 mg/kg/injection, schedule: Q01DX009 (ip), vehicle: other) is reported as 3 of 6. Besides, the T/C (dose: 20.0 mg/kg/injection, schedule: Q01DX009 (ip), vehicle: other) was 136 % of control [5 of 6 alive].
